PubChem BioAssay AID226 (DTP/NCI, 2004)
The list is a part of this screen's results and no random one: it gathers some chemical classes. Other doses and runs of a compound may be missing. T/C gives the treated animals as a percentage of the vehicle group. For survival time, the PubChem record calls one and a half times the control and up active, and a quarter to a half above the control has no call in these data; cut-offs in other NCI protocols can differ. Schedule codes are those of the source, taken here to give the interval after Q, in days (D) or hours (H), and the number of doses after X. Some entries show no survivor count and are marked so; the dose need not have been tolerated. Some entries were tested several times; the values are given in rising order.

System: B6C3F1 mice, intracerebral ependymoblastoma, median survival T/C
Assay: NCI In Vivo Anticancer Drug Screen. Data for tumor model Ependymoblastoma (intracerebral) in B6C3F1 mice
Conditions: T/C endpoint: median survival time, vehicle: saline, higher T/C = longer survival
Protocol: The antitumor activity of compounds was measured in mice bearing transplantable tumors. Survival or tumor size were measured and the results are expressed as the measurement made in the treated group (T) divided by the measurement made in the vehicle treated control group (C). The tumor model used in this assay is Ependymoblastoma (intracerebral) in B6C3F1 mice

Compound: CC(=O)OCC12CCC(C)=CC1OC1C(O)C(OC(C)=O)C2(C)C12CO2 (configuration not stated)
- T/C (dose: 0.5 mg/kg/injection, schedule: Q01DX005 (ip)): 103 [survivor count not shown] and 105 % of control [survivor count not shown]
- T/C (dose: 1.0 mg/kg/injection, schedule: Q01DX005 (ip)): 104 [survivor count not shown] and 107 % of control [survivor count not shown]
- T/C (dose: 2.0 mg/kg/injection, schedule: Q01DX005 (ip)): 103 [survivor count not shown], 104 [survivor count not shown], 106 % of control [survivor count not shown]
- T/C (dose: 4.0 mg/kg/injection, schedule: Q01DX001 (ip)): 100 [survivor count not shown], 101 [survivor count not shown], 107 % of control [survivor count not shown]
- T/C (dose: 4.0 mg/kg/injection, schedule: Q01DX005 (ip)): 100 [survivor count not shown] and 110 % of control [survivor count not shown]
- T/C (dose: 8.0 mg/kg/injection, schedule: Q01DX001 (ip)): 91 [survivor count not shown], 104 [survivor count not shown], 112 % of control [survivor count not shown]
- T/C (dose: 16.0 mg/kg/injection, schedule: Q01DX001 (ip)): 87 [survivor count not shown], 95 [survivor count not shown], 105 % of control [survivor count not shown]
